{
  "source": "PubChem BioAssay AID651595",
  "about": "(National Center for Advancing Translational Sciences (NCATS), 2012)",
  "note": "Hit rate of the full screen: of about 1,100 compounds, fewer than 10 were called active. Another 6% or so got no clear call; they are omitted. Calls come from the whole dose curve; as a rule, active = well fitted cell-killing curve with a large enough effect; inconclusive = small, poorly fitted or top-dose-only effect; inactive = flat fitted curve, though single readings scatter. The list shows a part of the results.",
  "data": [
    {"experiment": "qHTS of Nrf2 Activators: Hit Validation in Cytotox Assay;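 note: compound exposure lasted 24 hours before the ATP readout; 0% is about no effect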", "conditions": "Cell viability counter-screen for Nrf2 activator hits; series mostly up to 46.1 µM; activity change, negative = cytotoxicity: at the top concentration", "summary_of_the_method": "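Intracellular ATP measured with CellTiter-Glo luminescence (30 min, room temperature) as a viability read-out. Cells: AREc32_fluc, cultured overnight before 24 h compound exposure at 7 concentrations, 37 °C; activity here marks cytotoxicity.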", "values": [
      {"smiles": "COc1ccc(NC(=O)CSc2ccc(-c3ccco3)nn2)cc1OC", "activity change, negative = cytotoxicity": "inactive: 3.14%"},
      {"smiles": "COCCn1c(=NC(=O)c2cc(Cl)sc2Cl)sc2cc(S(N)(=O)=O)ccc21", "activity change, negative = cytotoxicity": "inactive: -4.77%"},
      {"smiles": "O=C(Nc1ccccc1)c1nc[nH]c1C(=O)Nc1ccccc1F", "activity change, negative = cytotoxicity": "inactive: 6.57%"},
      {"smiles": "FC(F)(F)c1cc(-c2ccco2)nc(NCc2ccco2)n1", "activity change, negative = cytotoxicity": "inactive: 2.32%"},
      {"smiles": "CNc1nc(N)c([N+](=O)[O-])c(Nc2cccc(Cl)c2)n1", "activity change, negative = cytotoxicity": "inactive: -0.263%"},
      {"smiles": "Oc1ccc(NCc2cccc(OCc3ccc(F)cc3)c2)cc1", "activity change, negative = cytotoxicity": "inactive: -22%"},
      {"smiles": "CCc1c(C)sc(NC(=O)c2ccco2)c1C#N", "activity change, negative = cytotoxicity": "inactive: 12.1%"},
      {"smiles": "O=C(Nc1nccc(-c2cccs2)n1)c1cccs1", "activity change, negative = cytotoxicity": "inactive: -1.81%"},
      {"smiles": "O=C(Nc1ccccc1)N1CCn2c1nc1ccccc12", "activity change, negative = cytotoxicity": "inactive: 2.76%"},
      {"smiles": "Clc1cc(-c2ccccc2)nc(-c2ccccc2)n1", "activity change, negative = cytotoxicity": "inactive: 13.6%"},
      {"smiles": "CCn1c(=O)oc2cc(NC(=O)CCl)ccc21", "activity change, negative = cytotoxicity": "inactive: -26.7%"},
      {"smiles": "O=C(Nc1ccc(F)cc1)c1sccc1SCc1cccc(C(F)(F)F)c1", "activity change, negative = cytotoxicity": "inactive: 6.24%"},
      {"smiles": "CCC(CC)c1nnc(NC(=O)/C=C/c2ccco2)s1", "activity change, negative = cytotoxicity": "inactive: 5.01%"},
      {"smiles": "N#Cc1ccccc1N/C=C/C(=O)c1ccc(Cl)cc1", "activity change, negative = cytotoxicity": "inactive: -19.6%"},
      {"smiles": "Nc1c(C(=O)c2cccs2)oc2ccccc12", "activity change, negative = cytotoxicity": "inactive: 2.9%"},
      {"smiles": "CC(=O)c1nn(-c2ccccc2)cc1C(=O)c1cccc(Br)c1", "activity change, negative = cytotoxicity": "inactive: -18.1%"},
      {"smiles": "COc1c(Cl)cc(C(=O)NCc2ccco2)cc1Cl", "activity change, negative = cytotoxicity": "inactive: 9.53%"},
      {"smiles": "COc1ccc2[nH]c3c(NCc4ccco4)ncnc3c2c1", "activity change, negative = cytotoxicity": "inactive: -2.65%"},
      {"smiles": "COc1ccc(Cl)cc1-c1nc(-c2ccncc2)no1", "activity change, negative = cytotoxicity": "inactive: 0.603%"},
      {"smiles": "O=C1/C(=C\\c2ccco2)NC(=S)N1c1ccccc1", "activity change, negative = cytotoxicity": "inactive: 5.34%"},
      {"smiles": "COCCn1c(C(F)(F)F)ccc(NC(=O)c2ccccc2)c1=O", "activity change, negative = cytotoxicity": "inactive: 3.26%"},
      {"smiles": "COc1ccc(O)c(-c2cc(-c3ccccc3Cl)[nH]n2)c1", "activity change, negative = cytotoxicity": "inactive: -8.44%"},
      {"smiles": "O=C(CSc1nnc(-c2ccco2)c(-c2ccco2)n1)c1ccccc1", "activity change, negative = cytotoxicity": "inactive: 2.57%"},
      {"smiles": "CCC1C/C(=C/c2cccs2)C(=O)/C(=C/c2cccs2)C1", "note": "(configuration not stated)", "activity change, negative = cytotoxicity": "inactive: -5.02%"},
      {"smiles": "C/C(=N\\Nc1ccc(F)cc1F)c1ccc(Br)s1", "activity change, negative = cytotoxicity": "inactive: -0.678%"},
      {"smiles": "CS(=O)(=O)c1nc(S(=O)(=O)c2ccc(Cl)cc2)c(N2CCOCC2)s1", "activity change, negative = cytotoxicity": "inactive: 4.33%"},
      {"smiles": "CN(C)/C=N/C1=C(C#N)C(c2cccs2)c2ccc3ccccc3c2O1", "note": "(configuration not stated)", "activity change, negative = cytotoxicity": "inactive: -2.33%"},
      {"smiles": "Nc1nc(Nc2ccccc2F)nc(NCc2ccco2)c1[N+](=O)[O-]", "activity change, negative = cytotoxicity": "inactive: -9.95%"},
      {"smiles": "CC1=NC(=O)C(N=Nc2cccc(O)c2)N1c1ccccc1", "note": "(configuration not stated)", "activity change, negative = cytotoxicity": "inactive: -10.7%"},
      {"smiles": "O=[N+]([O-])c1cccc(N2Cc3ccccc3C2)c1", "activity change, negative = cytotoxicity": "inactive: -2.14%"},
      {"smiles": "O=C(CN1CCS(=O)(=O)CC1)N/N=C/c1cccc(C(F)(F)F)c1", "activity change, negative = cytotoxicity": "inactive: -11.8%"},
      {"smiles": "C/C(=N\\Nc1ccc2nncn2n1)c1ccc(Cl)s1", "activity change, negative = cytotoxicity": "inactive: 7.74%"},
      {"smiles": "CS(=O)(=O)c1nc(S(=O)(=O)c2ccc(Cl)cc2)c(N2CCN(CCO)CC2)s1", "activity change, negative = cytotoxicity": "inactive: 1.46%"},
      {"smiles": "COC(=O)c1cc(=O)nc(NN=Cc2ccco2)s1", "activity change, negative = cytotoxicity": "inactive: 7.72%"},
      {"smiles": "O=C(CN1CCN(Cc2ccccc2)CC1)N/N=C\\C=C/c1ccco1", "activity change, negative = cytotoxicity": "inactive: 9.57%"},
      {"smiles": "Cc1ccc2nc(N(CCN(C)C)C(=O)/C=C/c3cccs3)sc2c1", "activity change, negative = cytotoxicity": "inactive: 0.0568%"},
      {"smiles": "COC(=O)/C=C1/S/C(=N/N=C/c2ccco2)NC1=O", "activity change, negative = cytotoxicity": "inactive: 6.89%"},
      {"smiles": "Cc1nc2sc(C(=O)c3ccccc3)c(N)c2c2c1CCCC2", "activity change, negative = cytotoxicity": "inactive: -22.1%"},
      {"smiles": "CCN(CC)CCNC(=O)C(Cl)=C1C(Cl)=C(Cl)C(Cl)=C1Cl", "activity change, negative = cytotoxicity": "inactive: -19%"},
      {"smiles": "CC1(C)C(=O)OC(/C=C/c2cccc([N+](=O)[O-])c2)C(C)(C)C1=O", "note": "(configuration not stated)", "activity change, negative = cytotoxicity": "inactive: -2.42%"},
      {"smiles": "[O-][n+]1onc2c1CCc1c-2nn(-c2ccccc2Cl)[n+]1[O-]", "activity change, negative = cytotoxicity": "inactive: -4.64%"},
      {"smiles": "COc1cc(Br)cc(/C=C/c2ccc3cccc(O)c3n2)c1OC", "activity change, negative = cytotoxicity": "inactive: -12.5%"},
      {"smiles": "O=C(Nc1ccccn1)c1csc2c1CCCC2", "activity change, negative = cytotoxicity": "inactive: -2.81%"},
      {"smiles": "Cc1cccc(C(=O)Nc2nnc(SCC(=O)NCc3ccco3)s2)c1", "activity change, negative = cytotoxicity": "inactive: 6.95%"},
      {"smiles": "CCc1nnc(NC(=O)/C=C/c2ccco2)s1", "activity change, negative = cytotoxicity": "inactive: 4.65%"},
      {"smiles": "COCCN(C(=O)c1ccco1)c1nc(-c2ccccc2)cs1", "activity change, negative = cytotoxicity": "inactive: 2.5%"},
      {"smiles": "O=C(Nc1cccc(F)c1)c1ccco1", "activity change, negative = cytotoxicity": "inactive: -0.254%"},
      {"smiles": "O=C(Nc1ncc2c(n1)CC(c1ccco1)CC2=O)c1ccc(Cl)cc1", "note": "(configuration not stated)", "activity change, negative = cytotoxicity": "inactive: 0.116%"},
      {"smiles": "O=C(Nc1ccccn1)Nc1ccccc1Cl", "activity change, negative = cytotoxicity": "inactive: 6.29%"},
      {"smiles": "Cc1cccn2c(=O)c(C=NCCO)c(NCc3ccco3)nc12", "activity change, negative = cytotoxicity": "inactive: -1.18%"},
      {"smiles": "O=C(Nc1cc(-c2nc3ncccc3o2)ccc1Cl)c1ccco1", "activity change, negative = cytotoxicity": "inactive: 11%"},
      {"smiles": "COc1ccc(S(=O)(=O)NCCc2csc3nc(-c4ccc(Cl)cc4)nn23)cc1C", "activity change, negative = cytotoxicity": "inactive: -1.61%"},
      {"smiles": "O=C(Nc1nc(-c2ccncc2)cs1)c1ccco1", "activity change, negative = cytotoxicity": "inactive: 5.1%"},
      {"smiles": "Cc1ccc2oc(-c3cccc(NC(=O)c4ccc(Br)o4)c3)nc2c1", "activity change, negative = cytotoxicity": "inactive: -1.91%"},
      {"smiles": "NC(=O)c1oc2ccccc2c1NC(=O)c1ccco1", "activity change, negative = cytotoxicity": "inactive: -0.897%"},
      {"smiles": "O=[N+]([O-])c1cccc2ccc(/C=C/c3ccc(Cl)cc3)nc12", "activity change, negative = cytotoxicity": "inactive: 3.46%"},
      {"smiles": "Oc1ccccc1C=NN=Cc1c(O)ccc2ccccc12", "activity change, negative = cytotoxicity": "inactive: 3.64%"},
      {"smiles": "O=C(NNC(=O)c1nc(Cl)ccc1Cl)c1ccc(F)cc1", "activity change, negative = cytotoxicity": "inactive: -0.0003%"},
      {"smiles": "O=C(N/N=C/c1c(O)ccc2ccccc12)Nc1ccccc1", "activity change, negative = cytotoxicity": "inactive: -22.3%"},
      {"smiles": "COc1cccc(-c2nc(-c3ccccc3)no2)c1", "activity change, negative = cytotoxicity": "inactive: -1.56%"},
      {"smiles": "C1=C(c2ccc(-c3ccccc3)cc2)Nc2ncnn2C1c1ccco1", "note": "(configuration not stated)", "activity change, negative = cytotoxicity": "inactive: 1.19%"},
      {"smiles": "CCSc1nc2ccccc2n1C(=O)/C=C/c1ccc(OC)c(OC)c1", "activity change, negative = cytotoxicity": "inactive: 3.11%"},
      {"smiles": "Nc1nc(/C=C/c2ccc(F)cc2)nc(-c2ccccc2O)n1", "activity change, negative = cytotoxicity": "inactive: -0.794%"},
      {"smiles": "CC(C)(C)C(=O)/C=c1\\[nH]c(=O)/c(=C\\c2ccccc2F)s1", "activity change, negative = cytotoxicity": "inactive: -4.15%"},
      {"smiles": "NC(=S)NN=C1CSSC1", "activity change, negative = cytotoxicity": "inactive: -21.6%"},
      {"smiles": "O=C(NC(=S)Nc1ccccc1F)c1ccc(Br)o1", "activity change, negative = cytotoxicity": "inactive: -1.15%"},
      {"smiles": "Cc1ccc(O)c(NC(=O)c2cc([N+](=O)[O-])ccc2Cl)c1", "activity change, negative = cytotoxicity": "inactive: 7.76%"},
      {"smiles": "CC(=O)c1cc2c(cc1NC(=O)c1ccco1)OCCO2", "activity change, negative = cytotoxicity": "inactive: 4.77%"},
      {"smiles": "CS(=O)(=O)c1nc(S(=O)(=O)c2ccc(Cl)cc2)c(N2CCC3(CC2)OCCO3)s1", "activity change, negative = cytotoxicity": "inactive: 12%"},
      {"smiles": "COc1ccccc1C=Cc1ccnc2ccccc12", "activity change, negative = cytotoxicity": "inactive: 1.67%"},
      {"smiles": "COc1ccc2c(c1)Cc1c-2cc(Br)c(N)c1Br", "activity change, negative = cytotoxicity": "inactive: 5.21%"},
      {"smiles": "COC(=O)c1ccc(Cl)cc1NC(=O)/C=C/c1ccc(C)o1", "activity change, negative = cytotoxicity": "inactive: -9.18%"},
      {"smiles": "CCOc1cc(C=O)cc(N=Nc2cccc([N+](=O)[O-])c2)c1O", "activity change, negative = cytotoxicity": "inactive: -5.76%"},
      {"smiles": "CC(OC(=O)/C=C/c1ccc2ccccc2n1)C(=O)Nc1ccc(S(N)(=O)=O)cc1", "note": "(configuration not stated)", "activity change, negative = cytotoxicity": "inactive: 11.4%"},
      {"smiles": "c1ccc(N=Nc2cn[nH]c2-c2ccco2)cc1", "activity change, negative = cytotoxicity": "inactive: 6.32%"},
      {"smiles": "O=C(Nc1cccc2nsnc12)c1cccs1", "activity change, negative = cytotoxicity": "inactive: 6.37%"},
      {"smiles": "O=c1oc2ccccc2cc1-c1nc2c(s1)CCc1ccccc1-2", "activity change, negative = cytotoxicity": "inactive: 5.99%"}
    ]}
  ]
}
